Data: the supplement of paper PMC11637464
Where a name gives a salt, the structure may show the parent alone. The list shows a part of the results. Many values rest on one well or one pass, so single values are uncertain.

Test system: primary mouse Muller glia with Ascl1 overexpression
Test: Neuronal cell count fold change vs Ascl1-only control (log2 fold change); higher = more neurogenesis
Settings: collection day: 2
Procedure: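 Primary P11 mouse Muller glia carrying dox-inducible Ascl1 were treated with Tocriscreen Stem Cell Library compounds at 0.1, 1 or 10 uM together with doxycycline for 5 days, then profiled by sci-Plex hashing and sci-RNA-seq2. Cells were annotated by marker genes and cell-type counts per well were size-factor adjusted. Read-outs are the log2 fold change of Neuronal (NeuPre + bipolar) and ProL cell counts versus the Ascl1-only control wells of the same collection day, plus the raw number of recovered cells per well. There is one well per dose, and wells with fewer than 20 cells were discarded.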

Compound | Neuronal cell count fold change (0.1 µM) | Neuronal cell count fold change (1 µM) | Neuronal cell count fold change (10 µM)
N[C@@H]1C[C@H]1c1ccccc1 [Tranylcypromine hydrochloride] | -0.893 | -2.12 | -1.38
Cc1sc2c(c1C)C(c1ccc(Cl)cc1)=N[C@@H](CC(N)=O)c1nnc(C)n1-2 | -3.7 | -3.7 | -3.7
COc1ccc(N(C(=O)Oc2c(C)cccc2C)c2ccnc(Nc3ccc(N4CCN(C)CC4)cc3)n2)c(OC)c1 | 0.107 | 0.943 | 
